Data as given in PubChem BioAssay AID1508588 (Peter MacCallum Cancer Centre, 2020)

- Test: 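Genome-wide search for knock-downs that heighten vemurafenib action in melanoma cells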 (primary screen)
- Cell system: human WM266.4 melanoma cells (BRAF V600 mutant)
- Knock-down reagent: siRNA pool against human genes, 40 nM
- Duration: 96 h from transfection to read-out
- Conditions: vemurafenib 300 nM (about IC25), added 48 h after transfection, for 48 h; comparison arm got DMSO vehicle only
- Measured: 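Ratios to non-targeting siRNA for cell gain, counted as DAPI nuclei after minus before drug and averaged over two replicates, and for absorbance-read medium lactate per cell; both binned into fold-change classes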
- Reading the numbers: cell gain with vemurafenib: higher = more cell gain than with non-targeting siRNA; lactate per cell with vemurafenib: higher = more lactate made per cell
- Rule for the call: 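a knock-down counts as enhancing when its fold-change classes with vehicle and with vemurafenib, taken together, show a stronger drug effect on cell gain or lactate per cell; exact class pairs not stated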
- Meaning of the calls: active = enhances vemurafenib effect; inactive = no enhancement seen
Here is one part, drawn at random, of about 18,000 deposited reagents. Over the whole deposit, 790 (4.4%) were called active. 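Calls rest on a combination of fold-change classes in drug and vehicle arms, not all shown here.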 No sequences are given here.

Gene | cell gain with vemurafenib | lactate per cell with vemurafenib | activity call
TAF5 | 0.56 | 0.9 | inactive
CAPRIN2 | 0.35 | 1.12 | inactive
ANXA3 | 1.11 | 1 | inactive
SNRNP200 | -0.06 | 2.02 | inactive
BGN | 0.7 | 0.95 | inactive
SLC17A9 | 0.2 | 0.36 | inactive
DUS1L | 0.15 | 1.54 | inactive
TBC1D20 | 0.29 | 1.4 | inactive
GARIN5A | 0.67 | 1.46 | inactive
SERPINB8 | 0.66 | 0.56 | inactive
CCDC25 | 0.53 | 0.62 | inactive
EXOSC3 | 0.66 | 1.32 | inactive
DCLK2 | 0.35 | 1.07 | inactive
AMER1 | 0.24 | 1.48 | inactive
DCDC2 | 0.54 | 0.67 | inactive
SHISA4 | 0.59 | 0.49 | inactive
CYRIA | 0.61 | 0.66 | inactive
ORC4 | 0.87 | 1.29 | inactive
SAP30L | 0.44 | 1.03 | inactive
BAHD1 | 1.07 | 0.79 | inactive
MOB3B | 0.26 | 0.2 | active
NUP155 | 0.49 | 0.72 | inactive
WIPI2 | 0.38 | 1.58 | inactive
B3GALNT1 | 0.69 | 0.57 | inactive
NRXN3 | 0.85 | 0.54 | inactive
TXNDC5 | 0.79 | 1.16 | inactive
RHCG | 0.99 | 1.27 | inactive
LILRA1 | 0.02 | 1.23 | inactive
HHAT | 0.64 | 0.93 | inactive
UBXN11 | 0.36 | 0.49 | inactive
GON4L | -0.01 | 1.46 | inactive
TRABD | 1.18 | 0.68 | inactive
TRIM49B | 0.56 | 0.64 | inactive
PRIM1 | 0.47 | 1.88 | inactive
MYH6 | 0.5 | 0.74 | inactive
DMAP1 | 0.52 | 0.6 | inactive
TMEM177 | 0.31 | 0.77 | inactive
MAMSTR | 0.44 | 0.82 | inactive
SNRPA | 0.85 | 1.09 | inactive
VCX2 | 0.51 | 0.54 | inactive
ZNF620 | 0.63 | 0.65 | inactive
SPIRE2 | 0.12 | 1.31 | inactive
UQCR11 | 1.05 | 0.78 | inactive
DLX4 | 0.29 | 1.92 | inactive
TEX29 | 0.62 | 0.7 | inactive
IL17RE | 0.77 | 1.18 | inactive
HCN4 | 0.68 | 0.84 | inactive
EI24 | 0.7 | 1.27 | inactive
WFDC10B | 0.74 | 1.12 | inactive
TLR5 | 1.03 | 0.48 | inactive
TLR2 | 0.7 | 0.86 | inactive
AKR1C3 | 0.3 | 0.92 | inactive
TPPP | 0.11 | 0.68 | inactive
FZD4 | 0.87 | 0.73 | inactive
C11orf52 | 0.15 | 0.75 | inactive
OR52B6 | 0.2 | 1.48 | inactive
SNX9 | 0.56 | 0.8 | inactive
LYSMD4 | 0.85 | 0.48 | active
ZCCHC3 | 0.69 | 1.03 | inactive
GSTA2 | 0.86 | 0.88 | inactive
DLX3 | 0.84 | 0.6 | inactive
PXMP4 | 0.73 | 0.51 | inactive
ABCD4 | 0.39 | 0.55 | inactive
MFSD8 | 0.87 | 0.65 | inactive
H3C8 | 0.53 | 1.12 | inactive
GALNT10 | 0.66 | 0.62 | inactive
SNX10 | 0.62 | 1.61 | inactive
KCNQ2 | 0.45 | 1.23 | inactive
PDE4D | 0.46 | 2.15 | inactive
IZUMO4 | 0.63 | 0.64 | inactive
TRIM77 | 0.26 | 1.36 | inactive
GIMAP1 | 1.19 | 0.97 | inactive
FAM193B | 0.03 | 2 | inactive
NFE4 | 0.68 | 0.74 | inactive
SHANK1 | 0.48 | 1.56 | inactive
RC3H2 | 0.91 | 0.91 | inactive
GCAT | 0.54 | 1.1 | inactive
OPN4 | 0.89 | 1.01 | inactive
RHOG | 0.47 | 1.6 | inactive
SNAI3 | -0.03 | 1.34 | inactive
ANAPC15 | 0.56 | 0.83 | inactive
PEAK1 | 0.47 | 1.25 | inactive
ZNF628 | 0.54 | 1.3 | inactive
LRP11 | 0.39 | 1.89 | inactive
